{"source": "paper PMC3605307", "binders": {"B1": {"name": "HCMV UL141 (residues 30–279), C-terminal hexa-histidine tag, of the crystallised complex (domain or fragment, UniProt Q6RJQ3 30-279)", "chain": "SFPFATADIAEKMWAENYETTSPAPVLVAEGEQVTIPCTVMTHSWPMVSIRARFCRSHDGSDELILDAVKGHRLMNGLQYRLPYATWNFSQLHLGQIFSLTFNVSTDTAGMYECVLRNYSHGLIMQRFVILTQLETLSRPDEPCCTPALGRYSLGDQIWSPTPWRLRNHDCGMYRGFQRNYFYIGRADAEDCWKPACPDEEPDRCWTVIQRYRLPGDCYRSQPHPPKFLPVTPAPPADIDTGMSPWATRG"}}, "target": "T1, HCMV UL141 (residues 30–279), C-terminal hexa-histidine tag, of the crystallised complex (human cytomegalovirus (HCMV), FIX strain) (UniProt Q6RJQ3)", "T1 sequence": "B1 chain", "assay": "crystal structure; both purified", "note": "These are yes or no findings as the source states them, for the method shown. Some entries that bind do so weakly or less than the wild type. Sequences can lack the tags named with a protein.", "data": [{"binder": "B1", "values": [{"measurement": "binding", "result": "binds"}]}]}
